Results taken from patent US11459323B2, “Monocyclic β-lactam compound for treating bacterial infection” (MEDSHINE DISCOVERY INC., priority 2018, dated 2022).
For at least one compound, name, drawing or mass did not settle the structure.

System: Acinetobacter baumannii
Assay: MIC range summary of Table 2, twelve strains
Format: cell-based
Settings: range over the twelve Acinetobacter baumannii strains

In the case of `C[C@@H](O)[C@H]1C(=O)N2C(C(=O)O)=C(SCCN=CN)C[C@H]12` [Imipenem, reference compound], the MIC range was 0.25→128.
